Experimental findings from doi:10.1101/2025.04.22.650084 are described below.

These are yes or no findings as the source states them, for the method shown. Some entries that bind do so weakly or less than the wild type. Where a sequence is shown, tags or fusion partners need not be part of it.

Assay in all cases: two-hybrid
In assay [1] the target is T1, U1-70k (49∼427aa) (N-IDR-deleted U1-70k, yeast two-hybrid fusion) (Arabidopsis thaliana) (UniProt Q42404).
T1 sequence: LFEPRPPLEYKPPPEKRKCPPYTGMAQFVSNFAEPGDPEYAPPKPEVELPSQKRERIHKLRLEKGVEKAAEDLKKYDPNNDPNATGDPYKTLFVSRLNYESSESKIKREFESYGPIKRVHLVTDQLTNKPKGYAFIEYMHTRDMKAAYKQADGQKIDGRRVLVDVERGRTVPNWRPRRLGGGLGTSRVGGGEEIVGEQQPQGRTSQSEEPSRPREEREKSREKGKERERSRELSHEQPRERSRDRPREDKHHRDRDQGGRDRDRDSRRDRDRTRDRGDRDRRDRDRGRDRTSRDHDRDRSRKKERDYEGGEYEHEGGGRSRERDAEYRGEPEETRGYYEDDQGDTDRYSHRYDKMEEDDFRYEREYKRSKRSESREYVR

The target of assay [2] is T2, U1-70k (full-length, yeast two-hybrid fusion) (Arabidopsis thaliana) (UniProt Q42404).
T2 sequence: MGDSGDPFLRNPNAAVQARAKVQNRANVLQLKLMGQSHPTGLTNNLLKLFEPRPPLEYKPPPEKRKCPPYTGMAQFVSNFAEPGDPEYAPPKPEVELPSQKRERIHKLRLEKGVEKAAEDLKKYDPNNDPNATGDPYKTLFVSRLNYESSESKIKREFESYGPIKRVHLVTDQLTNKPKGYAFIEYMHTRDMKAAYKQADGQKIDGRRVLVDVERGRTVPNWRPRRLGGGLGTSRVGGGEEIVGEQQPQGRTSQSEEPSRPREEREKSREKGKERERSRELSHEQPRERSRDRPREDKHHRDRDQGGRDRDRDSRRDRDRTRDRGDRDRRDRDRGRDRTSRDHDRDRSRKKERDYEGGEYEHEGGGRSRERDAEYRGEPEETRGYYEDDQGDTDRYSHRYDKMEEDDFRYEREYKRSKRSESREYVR

The target of assay [3] is T3, U1-70k 1∼393aa (LC2-deleted U1-70k, yeast two-hybrid fusion) (Arabidopsis thaliana) (UniProt Q42404).
T3 sequence: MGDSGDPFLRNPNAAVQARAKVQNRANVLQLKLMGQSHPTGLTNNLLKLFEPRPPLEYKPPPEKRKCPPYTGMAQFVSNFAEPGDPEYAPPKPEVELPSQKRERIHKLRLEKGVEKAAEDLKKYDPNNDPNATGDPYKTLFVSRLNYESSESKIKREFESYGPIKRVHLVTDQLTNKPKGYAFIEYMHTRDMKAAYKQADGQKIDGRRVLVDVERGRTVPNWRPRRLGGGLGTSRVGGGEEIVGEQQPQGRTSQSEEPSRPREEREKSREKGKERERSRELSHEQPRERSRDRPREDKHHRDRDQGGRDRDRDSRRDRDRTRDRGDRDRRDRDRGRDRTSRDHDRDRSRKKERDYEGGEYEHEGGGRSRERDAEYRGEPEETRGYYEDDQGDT

In assay [4] the target is T4, U1-70k (235-427aa) (yeast two-hybrid fusion) (Arabidopsis thaliana) (UniProt Q42404).
T4 sequence: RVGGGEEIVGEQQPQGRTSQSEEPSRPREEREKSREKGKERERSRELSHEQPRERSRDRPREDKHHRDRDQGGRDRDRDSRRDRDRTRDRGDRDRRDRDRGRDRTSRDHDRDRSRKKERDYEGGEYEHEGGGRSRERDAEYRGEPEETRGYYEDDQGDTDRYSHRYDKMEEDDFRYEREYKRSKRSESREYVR

B1: SGS3 (suppressor of gene silencing 3, yeast two-hybrid fusion) (protein, UniProt Q9LDX1 1-625)
chain: MSSRAGPMSKEKNVQGGYRPEVEQLVQGLAGTRLASSQDDGGEWEVISKKNKNKPGNTSGKTWVSQNSNPPRAWGGQQQGRGSNVSGRGNNVSGRGNGNGRGIQANISGRGRALSRKYDNNFVAPPPVSRPPLEGGWNWQARGGSAQHTAVQEFPDVEDDVDNASEEENDSDALDDSDDDLASDDYDSDVSQKSHGSRKQNKWFKKFFGSLDSLSIEQINEPQRQWHCPACQNGPGAIDWYNLHPLLAHARTKGARRVKLHRELAEVLEKDLQMRGASVIPCGEIYGQWKGLGEDEKDYEIVWPPMVIIMNTRLDKDDNDKWLGMGNQELLEYFDKYEALRARHSYGPQGHRGMSVLMFESSATGYLEAERLHRELAEMGLDRIAWGQKRSMFSGGVRQLYGFLATKQDLDIFNQHSQGKTRLKFELKSYQEMVVKELRQISEDNQQLNYFKNKLSKQNKHAKVLEESLEIMSEKLRRTAEDNRIVRQRTKMQHEQNREEMDAHDRFFMDSIKQIHERRDAKEENFEMLQQQERAKVVGQQQQNINPSSNDDCRKRAEEVSSFIEFQEKEMEEFVEEREMLIKDQEKKMEDMKKRHHEEIFDLEKEFDEALEQLMYKHGLHNEDD
Consider B1, for which the binding entry in assay [1] was “binds”; in assay [2] it was “binds”; in assay [3], “no binding”; in assay [4] it was “no binding”.
